Experimental data: article PMC7140707
These are yes or no findings as the source states them, for the method shown. Binding seen in cells or lysates may run through a third protein. These calls come from enrichment with a bait or labelling near it, and not all partners need be listed. Where a sequence is shown, tags or fusion partners need not be part of it.

T1: His6-Gis1 (yeast (S. cerevisiae)) (UniProt Q03833)
T1 sequence: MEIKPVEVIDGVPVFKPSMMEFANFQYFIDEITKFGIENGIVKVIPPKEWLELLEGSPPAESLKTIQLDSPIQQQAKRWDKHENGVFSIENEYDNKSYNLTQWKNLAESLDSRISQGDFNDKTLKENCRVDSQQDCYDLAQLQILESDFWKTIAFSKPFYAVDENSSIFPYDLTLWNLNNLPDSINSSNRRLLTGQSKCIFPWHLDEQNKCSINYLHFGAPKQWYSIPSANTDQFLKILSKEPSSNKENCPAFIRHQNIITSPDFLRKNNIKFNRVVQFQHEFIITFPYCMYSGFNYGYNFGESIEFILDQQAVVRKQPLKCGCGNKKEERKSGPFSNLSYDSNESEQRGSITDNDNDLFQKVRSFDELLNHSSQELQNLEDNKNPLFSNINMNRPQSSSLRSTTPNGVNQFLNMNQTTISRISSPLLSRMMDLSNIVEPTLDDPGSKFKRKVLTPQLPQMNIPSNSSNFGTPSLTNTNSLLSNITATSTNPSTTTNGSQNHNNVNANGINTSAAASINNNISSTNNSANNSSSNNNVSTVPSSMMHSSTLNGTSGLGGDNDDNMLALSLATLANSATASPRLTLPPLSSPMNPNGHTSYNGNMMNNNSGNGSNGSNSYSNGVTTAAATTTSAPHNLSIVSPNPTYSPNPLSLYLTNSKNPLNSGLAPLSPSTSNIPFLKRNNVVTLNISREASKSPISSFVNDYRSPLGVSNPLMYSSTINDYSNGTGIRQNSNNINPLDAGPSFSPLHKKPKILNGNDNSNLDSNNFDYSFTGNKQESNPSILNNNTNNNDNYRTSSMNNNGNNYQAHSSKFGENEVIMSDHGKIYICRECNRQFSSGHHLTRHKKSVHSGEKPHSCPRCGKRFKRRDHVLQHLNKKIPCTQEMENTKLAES

B1: DUF1 (protein, UniProt Q99247 1-1116)
chain: MNQLTVSYGLISPDYCTSQDAHILPITKILYPDIPGKNYFLTSGRDGSIILHKNTQLSNEPETAATTIKNDAIRMQVHSDWASDLIHVNMKNSDPSAGDTFISVSHDFSIVLISVNAQLTTWDKKIIGDHDDYIKCIVPIHYEMSNDYELEEQEGGPDNVHDGINNGIVVDEQNNFLFVTGGLDRKIKLWCLSSGPEKMATLLHTFDNAQSNDTGSIYSMSPIIPKYSFDDNQTSRPFDFVAGDCNGDLIFYSCKYRKEVIRIQNAHRTNIKVVRTLDDSTRLISTSSDGVINVWDLNCRHDQTTGALQLPKKIGSWSWDSSIWCVQGTSLDKLYFGDSQGNVMRANLSSYEDAKLTRIFKPDHHHHHHHHHEHEEQNISTTDAKVKKYGGILDIALLPNEKLLFSFCTDSNLNVLDLTNNHFSVNEGGFALTRSSLLTNRRHVITENTKGQMQRWDIVSCELLNTFDSSEGSFDDIVMKYTSKEILSHWCTVSVKVGMLFVKINPKFLKTEVYGSALKDYQVVNNIEINSDERYNLGKIVINSLFNEFISYEVQKDKLLRKKIFSLKKKDLTNSLTLDTGYNSESKKNNKDKKRKSTFKISSTLSIGNTNSSGTPPNSAPATPVMAETIVLEEQPLLQSASDKAIDDSLELVQPLPASKKPYFRTQSSGSLLSRKFKSFRSTSGRATTGLNTPEEPKGILPDTPHVINDDSAFPQAINTTQQSKDATPESMLWNHPFKLEQKLSAISSQDLPSNNTHNKLRSSENSRANSTSTLEGNEKKKPEFMPDLLEQIQESYKQQYMNTSSLKYLTKRLPVTKIIKASSCPIIRVKSATLVLVHLWKEGSCGGRVLFSTLLPPSHVDNETVSGGKENSKPPDDEEVDLQAVDDDKLGKYDLIDGELGSRLNRRQIFEQLEENLPYWFAKALFRDIKTVEEQPKLNFLIMPWSSVGGSEAAGNENKKKFISASDTTESSGNDSSDSSLGNGNEAVSPSTQQQFHNMLKFGRPKTSEQELNPTDLPRISEANVKLVAPGMIRVKKIKLYVADRFETKTPEMKAKMEPSLWLDLLCRGQVLDNDMTLNTVRTLYWKSQGDIVLEYRRKVHNSPLVHEVNGNEGK
B2: DOT6 (protein, UniProt P40059 1-670)
chain: MSISTSLNSASIHLSSMDTHPQLHSLTRQPHSSSTAMSKNEAQESSPSLPASSSSSTSASASASSKNSSKNPSSWDPQDDLLLRHLKEVKKMGWKDISQYFPNRTPNACQFRWRRLKSGNLKSNKTALIDINTYTGPLKITHGDETANAQQKPSKKVEENVLTEDTAEFTTTSSIPIPSRKTSLPSFHASMSFSQSPSNVTPTTIVSNAASSMPFAPPTLPAALPHHPHQHLHHHPHHKTLKPRSNSHSFTNSLNQDPIVRSNDEEKYGFIPKVFVRSRRSSFAYPQQVAITTTPSSPNSSHVLLSSKSRRGSLANWSRRSSFNVSSNNTSRRSSMILAPNSVSNIFNVNNSGSNTASTSNTNSRRESVIKKEFQQRLNNLSNSGGPTSNNGPIFPNSYTFMDLPHSSSVSSSSTLHKSKRGSFSGHSMKSSCNPTNLWSKDEDALLMENKKRNLSVMELSILLPQRTEVEIQWRLNALSSDADMLSPTHSPQKTLSKKTCPRMFKSGSTTDDDKGSDKEDVMGDGSNDDDEDNVDPLHRAKQSSNKTVFSSSSSNISSKDVSPDPIFSPDPADDSSNTSDAGSRCTITSDTSSSAATMNRTPNSKNPQDIALLNNFRSEAITPRPKPSSTTTSITTETTNNMINHSSSTTTTTNNSPLPSINTIFKDML
B3: GAL83 (protein, UniProt Q04739 1-417)
chain: MAGDNPENKDASMLDVSDAASNTTINGKHSADSTNEASLAYTFSQMNVDNPNELEPQHPLRHKSSLIFNDDDDDEIPPYSNHAENGSGETFDSDDDIDASSSSSIDSNEGDIHDADMTGNTLQKMDYQPSQQPDSLQNQGFQQQQEQQQGTVEGKKGRAMMFPVDITWQQGGNKVYVTGSFTGWRKMIGLVPVPGQPGLMHVKLQLPPGTHRFRFIVDNELRFSDYLPTATDQMGNFVNYMEVSAPPDWGNEPQQHLAEKKANHVDDSKLSKRPMSARSRIALEIEKEPDDMGDGYTRFHDETPAKPNLEYTQDIPAVFTDPNVMEQYYLTLDQQQNNHQNMAWLTPPQLPPHLENVILNSYSNAQTDNTSGALPIPNHVILNHLATSSIKHNTLCVASIVRYKQKYVTQILYTPLQ
B4: GUA1 (protein, UniProt P38625 1-525)
chain: MAAGEQVSNMFDTILVLDFGSQYSHLITRRLREFNIYAEMLPCTQKISELGWTPKGVILSGGPYSVYAEDAPHVDHAIFDLNVPILGICYGMQELAWINGKQVGRGDKREYGPATLKVIDDSNSLFKGMNDSTVWMSHGDKLHGLPTGYKTIATSDNSPYCGIVHETKPIYGIQFHPEVTHSTQGKTLLKNFAVDLCHAKQNWTMENFIDTEINRIRKLVGPTAEVIGAVSGGVDSTVASKLMTEAIGDRFHAILVDNGVLRLNEAANVKKTLVEGLGINLMVVDASEEFLSKLKGVTDPEKKRKIIGNTFIHVFEREAEKIKPKDGKEIQFLLQGTLYPDVIESISFKGPSQTIKTHHNVGGLLENMKLKLIEPLRELFKDEVRHLGELLGIPHDLVWRHPFPGPGIAIRVLGEVTKEQVEIARKADNIYIEEIKKAGLYNQISQAFACLLPVKSVGVMGDQRTYDQVIALRAIETTDFMTADWFPFEHSFLKKVASRIVNEVDGVARVTYDITSKPPATVEWE
B5: DLD3 (protein, UniProt P39976 1-496)
chain: MTAAHPVAQLTAEAYPKVKRNPNFKVLDSEDLAYFRSILSNDEILNSQAPEELASFNQDWMKKYRGQSNLILLPNSTDKVSKIMKYCNDKKLAVVPQGGNTDLVGASVPVFDEIVLSLRNMNKVRDFDPVSGTFKCDAGVVMRDAHQFLHDHDHIFPLDLPSRNNCQVGGVVSTNAGGLNFLRYGSLHGNVLGLEVVLPNGEIISNINALRKDNTGYDLKQLFIGAEGTIGVVTGVSIVAAAKPKALNAVFFGIENFDTVQKLFVKAKSELSEILSAFEFMDRGSIECTIEYLKDLPFPLENQHNFYVLIETSGSNKRHDDEKLTAFLKDTTDSKLISEGMMAKDKADFDRLWTWRKSVPTACNSYGGMYKYDMSLQLKDLYSVSAAVTERLNAAGLIGDAPKPVVKSCGYGHVGDGNIHLNIAVREFTKQIEDLLEPFVYEYIASKKGSISAEHGIGFHKKGKLHYTRSDIEIRFMKDIKNHYDPNGILNPYKYI
B6: HBT1 (protein, UniProt Q07653 1-1046)
chain: MNMNESISKDGQGEEEQNNFSFGGKPGSYDSNSDSAQRKKSFSTTKPTEYNLPKEQPESTSKNLETKAKNILLPWRKKHNKDSETPHEDTEADANRRANVTSDVNPVSADTKSSSGPNATITTHGYSYVKTTTPAATSEQSKVKTSPPTSHEHSNIKASPTAHRHSKGDAGHPSIATTHNHSTSKAATSPVTHTHGHSSATTSPVTHTHGHASVKTTSPTNTHEHSKANTGPSATATTHGHINVKTTHPVSHGHSGSSTGPKSTAAAQDHSSTKTNPSVTHGHTSVKDNSSATKGYSNTDSNSDRDVIPGSFRGMTGTDVNPVDPSVYTSTGPKSNVSSGMNAVDPSVYTDTSSKSADRRKYSGNTATGPPQDTIKEIAQNVKMDESEQTGLKNDQVSGSDAIQQQTMEPEPKAAVGTSGFVSQQPSYHDSNKNIQHPEKNKVDNKNISERAAEKFNIERDDILESADDYQQKNIKSKTDSNWGPIEYSSSAGKNKNLQDVVIPSSMKEKFDSGTSGSQNMPKAGTELGHMKYNDNGRDNLQYVAGSQAGSQNTNNNIDMSPRHEAEWSGLSNDATTRNNVVSPAMKDEDMNEDSTKPHQYGLDYLDDVEDYHENDIDDYSNAKKNDLYSKKAYQGKPSDYNYEQREKIPGTFEPDTLSKSVQKQDEDPLSPRQTTNRAGMETARDESLGNYEYSNTSGNKKLSDLSKNKSGPTPTRSNFIDQIEPRRAKTTQDIASDAKDFTNNPETGTTGNVDTTGRMGAKSKTFSSNPFDDSKNTDTHLENANVAAFDNSRSGDTTYSKSGDAETAAYDNIKNADPTYAKSQDITGMTHDQEPSSEQKASYGSGGNSQNQEYSSDDNIDVNKNAKVLEEDAPGYKREVDLKNKRRTDLGGADASNAYAAEVGNFPSLIDPHVPTYGFKDTNTSSSQKPSEGTYPETTSYSIHNETTSQGRKVSVGSMGSGKSKHHHNHHRHSRQNSSKGSDYDYNNSTHSAEHTPRHHQYGSDEGEQDYHDDEQGEEQAGKQSFMGRVRKSISGGTFGFRSEI

Target: T1, His6-Gis1 (yeast (S. cerevisiae))
Assay: affinity purification with mass spectrometry; His6-Gis1 pre-bound to a Ni Sepharose 6 Fast Flow column; crude yeast extract (Δgis1 cells grown in air or under hypoxia, Δgis1Δhem1 cells at intermediate or high ALA) loaded, 4 °C, 2 h; eluted complexes separated by SDS-PAGE, bands excised, MS; only the target purified

binding | Binder
binds | B1
binds | B2
binds | B3
binds | B4
binds | B5
binds | B6
